Experimental data reported in PMC8629785.
These are yes or no findings as the source states them, for the method shown. In cells and extracts the contact can be indirect. Some binding calls cover weakened binding; strength is not graded here. For some of these results: Where a sequence is shown, tags or fusion partners need not be part of it. Blank lines part the entries; values can stand above or below the molecule they belong to.

By UniProt entry, the sequences of proteins in these tests, tags left out.
UniProt Q13616: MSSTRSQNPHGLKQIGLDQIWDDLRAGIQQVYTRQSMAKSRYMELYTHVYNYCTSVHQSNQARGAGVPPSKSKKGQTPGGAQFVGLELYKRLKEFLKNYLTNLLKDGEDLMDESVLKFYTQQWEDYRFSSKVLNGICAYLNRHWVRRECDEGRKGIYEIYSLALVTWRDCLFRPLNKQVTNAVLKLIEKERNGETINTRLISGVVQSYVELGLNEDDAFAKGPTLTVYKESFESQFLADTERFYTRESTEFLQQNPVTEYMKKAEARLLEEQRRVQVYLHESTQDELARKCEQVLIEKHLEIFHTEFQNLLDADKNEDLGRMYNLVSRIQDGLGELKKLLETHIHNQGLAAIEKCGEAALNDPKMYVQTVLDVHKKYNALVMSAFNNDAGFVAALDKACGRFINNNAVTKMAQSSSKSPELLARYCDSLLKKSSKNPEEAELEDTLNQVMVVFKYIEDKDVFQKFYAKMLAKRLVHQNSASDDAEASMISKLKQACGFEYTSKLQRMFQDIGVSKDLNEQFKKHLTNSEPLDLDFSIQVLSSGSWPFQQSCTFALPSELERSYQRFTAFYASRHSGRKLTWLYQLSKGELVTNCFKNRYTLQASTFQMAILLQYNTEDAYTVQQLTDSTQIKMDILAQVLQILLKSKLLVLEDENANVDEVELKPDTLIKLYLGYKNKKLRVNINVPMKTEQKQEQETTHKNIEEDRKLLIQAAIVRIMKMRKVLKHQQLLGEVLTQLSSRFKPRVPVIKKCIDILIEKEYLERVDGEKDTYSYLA
UniProt Q01959: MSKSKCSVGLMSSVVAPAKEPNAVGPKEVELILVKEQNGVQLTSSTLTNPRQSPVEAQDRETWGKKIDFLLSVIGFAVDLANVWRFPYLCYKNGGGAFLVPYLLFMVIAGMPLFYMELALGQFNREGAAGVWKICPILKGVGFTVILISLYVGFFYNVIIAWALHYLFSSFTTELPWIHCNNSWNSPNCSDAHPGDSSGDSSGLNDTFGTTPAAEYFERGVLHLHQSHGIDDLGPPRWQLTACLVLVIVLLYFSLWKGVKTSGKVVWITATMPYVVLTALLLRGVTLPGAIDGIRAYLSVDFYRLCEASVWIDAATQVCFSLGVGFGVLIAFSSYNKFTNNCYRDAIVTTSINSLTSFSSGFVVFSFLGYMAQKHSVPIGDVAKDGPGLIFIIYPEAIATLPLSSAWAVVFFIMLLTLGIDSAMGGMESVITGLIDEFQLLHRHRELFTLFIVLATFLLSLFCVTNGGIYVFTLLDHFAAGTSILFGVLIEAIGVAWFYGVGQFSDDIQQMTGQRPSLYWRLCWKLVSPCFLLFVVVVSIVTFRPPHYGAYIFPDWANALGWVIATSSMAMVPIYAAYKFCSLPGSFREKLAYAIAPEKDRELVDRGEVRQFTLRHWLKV

How the values were obtained:
Assay in all cases: co-IP; HEK293 cells transiently co-transfected with tagged proteins, 48 h; solubilised in RIPA buffer (0.1% SDS, 1% Triton X100, 0.5% sodium deoxycholate, 150 mM NaCl), in some panels a modified RIPA without SDS or with rising SDS (diluted to 0.1% before IP); antibody to the tag overnight at 4 °C, protein A or G agarose, western blot
flag-Cullin1 = flag-Cullin1 (UniProt Q13616)
myc-FBXL2 = target: T1, myc-FBXL2 (UniProt Q9UKC9)
T1 sequence: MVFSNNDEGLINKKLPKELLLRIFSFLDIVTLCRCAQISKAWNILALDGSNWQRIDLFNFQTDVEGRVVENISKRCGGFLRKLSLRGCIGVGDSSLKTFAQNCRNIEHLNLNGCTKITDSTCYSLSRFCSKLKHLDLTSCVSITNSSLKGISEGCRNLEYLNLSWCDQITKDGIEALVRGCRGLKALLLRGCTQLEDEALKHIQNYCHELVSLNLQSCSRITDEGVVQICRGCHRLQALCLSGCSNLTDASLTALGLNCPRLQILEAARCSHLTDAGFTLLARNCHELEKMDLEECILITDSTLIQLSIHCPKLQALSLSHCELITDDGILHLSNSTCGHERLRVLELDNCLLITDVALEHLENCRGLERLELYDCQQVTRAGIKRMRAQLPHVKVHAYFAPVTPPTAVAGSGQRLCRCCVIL

HA-DAT = HA-DAT (UniProt Q01959)

binding (flag-Cullin1): binds | binding (myc-FBXL2): binds
Molecule: HA-DAT (from UniProt Q01959 1-620)

binding (HA-DAT): binds
B1: GFP-M6b (protein, UniProt P35803 1-328)
chain: MKPAMETAAEENTEQSQERKVNSRAEMEIGRYHWMYPGSKNHQYRPVPNLGDRAGPLSSPGCFECCIKCLGGVPYASLVATILCFSGVALFCGCGHVALAGTVAILEQHFSTNTSDHALLSEVIQLMQYVIYGIASFFFLYGIILLAEGFYTTSAVKELHGEFKTTACGRCISGMFVFLTYVLGVAWLGVFGFSAVPVFMFYNIWSTCEVIKSPQSNGTSGVEQICVDVRQYGIIPWNAFPGKICGSALENICNTNEFYMSYHLFIVACAGAGATVIALIHFLMILSSNWAYLKDASKMQAYQDIKAKEEQELQDIQSRSKEQLNSYT

binding (HA-DAT): binds
B2: myc-FBXO3 (protein, UniProt Q9UK99 1-471)
chain: MAAMETETAPLTLESLPTDPLLLILSFLDYRDLINCCYVSRRLSQLSSHDPLWRRHCKKYWLISEEEKTQKNQCWKSLFIDTYSDVGRYIDHYAAIKKAWDDLKKYLEPRCPRMVLSLKEGAREEDLDAVEAQIGCKLPDDYRCSYRIHNGQKLVVPGLLGSMALSNHYRSEDLLDVDTAAGGFQQRQGLKYCLPLTFCIHTGLSQYIAVEAAEGRNKNEVFYQCPDQMARNPAAIDMFIIGATFTDWFTSYVKNVVSGGFPIIRDQIFRYVHDPECVATTGDITVSVSTSFLPELSSVHPPHYFFTYRIRIEMSKDALPEKACQLDSRYWRITNAKGDVEEVQGPGVVGEFPIISPGRVYEYTSCTTFSTTSGYMEGYYTFHFLYFKDKIFNVAIPRFHMACPTFRVSIARLEMGPDEYEEMEEEEEEEEEEDEDDDSADMDESDEDDEEERRRRVFDVPIRRRRCSRLF

binding (HA-DAT): binds
B3: myc-FBXL2 (protein, UniProt Q9UKC9 1-423)
chain: T1 sequence

binding (HA-DAT): binds
B4: myc-PGRMC2 (protein, UniProt O15173 1-223)
chain: MAAGDGDVKLGTLGSGSESSNDGGSESPGDAGAAAEGGGWAAAALALLTGGGEMLLNVALVALVLLGAYRLWVRWGRRGLGAGAGAGEESPATSLPRMKKRDFSLEQLRQYDGSRNPRILLAVNGKVFDVTKGSKFYGPAGPYGIFAGRDASRGLATFCLDKDALRDEYDDLSDLNAVQMESVREWEMQFKEKYDYVGRLLKPGEEPSEYTDEEDTKDHNKQD

binding (HA-DAT): binds
B5: myc-FBX18 (protein, UniProt Q96ME1 1-718)
chain: MASSGEDISNDDDDMHPAAAGMADGVHLLGFSDEILLHILSHVPSTDLILNVRRTCRKLAALCLDKSLIHTVLLQKDYQASEDKVRQLVKEIGREIQQLSMAGCYWLPGSTVEHVARCRSLVKVNLSGCHLTSLRLSKMLSALQHLRSLAIDVSPGFDASQLSSECKATLSRVRELKQTLFTPSYGVVPCCTSLEKLLLYFEILDRTREGAILSGQLMVGQSNVPHYQNLRVFYARLAPGYINQEVVRLYLAVLSDRTPQNLHAFLISVPGSFAESGATKNLLDSMARNVVLDALQLPKSWLNGSSLLQHMKFNNPFYFSFSRCTLSGGHLIQQVINGGKDLRSLASLNLSGCVHCLSPDSLLRKAEDDIDSSILETLVASCCNLRHLNLSAAHHHSSEGLGRHLCQLLARLRHLRSLSLPVCSVADSAPRADRAPAQPAMHAVPRGFGKKVRVGVQSCPSPFSGQACPQPSSVFWSLLKNLPFLEHLELIGSNFSSAMPRNEPAIRNSLPPCSRAQSVGDSEVAAIGQLAFLRHLTLAQLPSVLTGSGLVNIGLQCQQLRSLSLANLGMMGKVVYMPALSDMLKHCKRLRDLRLEQPYFSANAQFFQALSQCPSLQRLCLVSRSGTLQPDAVLAFMARCLQVVMCHLFTGESLATCKSLQQSLLRSFQAERPALNVVIFPLLHEGLTDVIRDVPLVHLDEITLFKSRVAEEPPNLWW
